{"source": "PubChem BioAssay AID1259254 (NCATS, 2017)", "screen": "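Gene knock-downs that lead to re-replication, shown by excess G2 DNA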 (primary screen)", "cells": "human HCT116 colorectal cancer cells", "knock-down reagent": "single siRNA against human genes", "duration": "3 days", "detection": "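Nuclei stained with Hoechst and imaged; cell-cycle phase assigned by DNA content; G2 share scaled per plate, non-targeting siRNA 0%, GMNN siRNA 100%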", "direction": "G2 robust z-score: higher = more G2 cells, more excess DNA replication", "rule for the call": "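An siRNA counts as active if its G2 robust z-score lies at least 5 MADs above the screen median; here such calls match roughly 38% of GMNN control or more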", "note": "In all, the deposit lists about 59,000 reagents; shown is an unselected part. In the full data, about 1,550 (2.6%) got an active call. 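G2 share is only a proxy for re-replication; each gene was hit by three separate siRNAs, and active genes were retested.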 Unmarked entries are inactive. Reagents against one gene are numbered here. Not all columns of the deposit are shown. Not given: the amount of reagent."}
{"gene knocked down":"CCDC66 (GeneID 285331)","siRNA no.":1,"G2 robust z-score":-0.209}
{"gene knocked down":"CCDC66 (GeneID 285331)","siRNA no.":2,"G2 robust z-score":0.0129}
{"gene knocked down":"CCDC66 (GeneID 285331)","siRNA no.":3,"G2 robust z-score":-0.32}
{"gene knocked down":"PCDHGB6 (GeneID 56100)","siRNA no.":1,"G2 robust z-score":-0.572}
{"gene knocked down":"PCDHGB6 (GeneID 56100)","siRNA no.":2,"G2 robust z-score":-1.16}
{"gene knocked down":"PCDHGB6 (GeneID 56100)","siRNA no.":3,"G2 robust z-score":-0.891}
{"gene knocked down":"GPBAR1 (GeneID 151306)","siRNA no.":1,"G2 robust z-score":-0.32}
{"gene knocked down":"GPBAR1 (GeneID 151306)","siRNA no.":2,"G2 robust z-score":2.39}
{"gene knocked down":"GPBAR1 (GeneID 151306)","siRNA no.":3,"G2 robust z-score":2.11}

Laid out differently: entries from further up
{"gene knocked down": "CCDC66 (GeneID 285331)", "siRNA no.": 2, "G2 robust z-score": 0.0129}
{"gene knocked down": "CCDC66 (GeneID 285331)", "siRNA no.": 3, "G2 robust z-score": -0.32}
{"gene knocked down": "PCDHGB6 (GeneID 56100)", "siRNA no.": 1, "G2 robust z-score": -0.572}

The listing continues:
{"gene knocked down":"OR4C15 (GeneID 81309)","siRNA no.":1,"G2 robust z-score":0.803}
{"gene knocked down":"OR4C15 (GeneID 81309)","siRNA no.":2,"G2 robust z-score":-0.866}
{"gene knocked down":"OR4C15 (GeneID 81309)","siRNA no.":3,"G2 robust z-score":0.542}
{"gene knocked down":"WNK1 (GeneID 65125)","siRNA no.":1,"G2 robust z-score":-0.467}
{"gene knocked down":"WNK1 (GeneID 65125)","siRNA no.":2,"G2 robust z-score":2.81}
{"gene knocked down":"WNK1 (GeneID 65125)","siRNA no.":3,"G2 robust z-score":2.41}
{"gene knocked down":"WNK1 (GeneID 65125)","siRNA no.":4,"G2 robust z-score":-0.537}
{"gene knocked down":"WNK1 (GeneID 65125)","siRNA no.":5,"G2 robust z-score":-0.0889}
{"gene knocked down":"WNK1 (GeneID 65125)","siRNA no.":6,"G2 robust z-score":-0.705}
{"gene knocked down":"SUV39H2 (GeneID 79723)","siRNA no.":1,"G2 robust z-score":0.163}
{"gene knocked down":"SUV39H2 (GeneID 79723)","siRNA no.":2,"G2 robust z-score":-0.998}
{"gene knocked down":"SUV39H2 (GeneID 79723)","siRNA no.":3,"G2 robust z-score":-0.811}
{"gene knocked down":"EXOC3L2 (GeneID 90332)","siRNA no.":1,"G2 robust z-score":-0.435}
{"gene knocked down":"EXOC3L2 (GeneID 90332)","siRNA no.":2,"G2 robust z-score":0.959}
{"gene knocked down":"EXOC3L2 (GeneID 90332)","siRNA no.":3,"G2 robust z-score":2.8}
